The values below come from the supplement of paper PMC6411743.

The chains behind the UniProt entries cited, without tags or fusion partners. Where a name states a change or a piece, a line headed by the entry shows the natural chain unless it says otherwise.
UniProt P10398: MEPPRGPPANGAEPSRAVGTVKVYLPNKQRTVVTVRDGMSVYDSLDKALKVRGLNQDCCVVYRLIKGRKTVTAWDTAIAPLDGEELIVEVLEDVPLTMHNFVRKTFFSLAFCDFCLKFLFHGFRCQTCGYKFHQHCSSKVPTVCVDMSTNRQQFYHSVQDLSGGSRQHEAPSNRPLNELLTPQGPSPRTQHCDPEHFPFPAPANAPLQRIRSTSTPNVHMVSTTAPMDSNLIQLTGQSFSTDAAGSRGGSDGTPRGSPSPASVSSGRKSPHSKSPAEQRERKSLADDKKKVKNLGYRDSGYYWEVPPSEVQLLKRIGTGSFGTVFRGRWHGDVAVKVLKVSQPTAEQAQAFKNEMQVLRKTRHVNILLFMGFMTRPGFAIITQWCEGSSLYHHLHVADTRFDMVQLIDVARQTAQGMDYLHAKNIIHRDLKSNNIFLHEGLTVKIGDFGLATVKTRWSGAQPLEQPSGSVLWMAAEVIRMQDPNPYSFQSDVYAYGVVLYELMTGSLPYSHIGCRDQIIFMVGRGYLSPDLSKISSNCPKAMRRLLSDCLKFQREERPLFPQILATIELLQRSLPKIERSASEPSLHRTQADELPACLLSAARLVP
UniProt P11441: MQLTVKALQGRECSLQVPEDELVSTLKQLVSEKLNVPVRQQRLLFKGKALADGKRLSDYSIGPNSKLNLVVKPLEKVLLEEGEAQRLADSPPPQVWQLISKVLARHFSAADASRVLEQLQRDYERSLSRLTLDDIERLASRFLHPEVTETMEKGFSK
UniProt P14868: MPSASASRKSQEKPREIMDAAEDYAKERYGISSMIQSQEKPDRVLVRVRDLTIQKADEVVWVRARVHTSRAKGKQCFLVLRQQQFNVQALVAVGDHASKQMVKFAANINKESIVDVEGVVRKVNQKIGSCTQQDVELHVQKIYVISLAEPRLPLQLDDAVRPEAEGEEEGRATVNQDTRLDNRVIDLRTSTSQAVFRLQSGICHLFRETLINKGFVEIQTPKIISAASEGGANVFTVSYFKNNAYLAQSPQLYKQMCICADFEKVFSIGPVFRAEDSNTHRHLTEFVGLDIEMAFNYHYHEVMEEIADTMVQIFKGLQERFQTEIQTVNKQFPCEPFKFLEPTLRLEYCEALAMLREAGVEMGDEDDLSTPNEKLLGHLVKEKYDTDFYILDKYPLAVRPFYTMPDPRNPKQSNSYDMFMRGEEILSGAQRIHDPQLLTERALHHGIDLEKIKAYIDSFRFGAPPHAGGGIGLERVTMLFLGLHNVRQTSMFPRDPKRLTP
UniProt P13796: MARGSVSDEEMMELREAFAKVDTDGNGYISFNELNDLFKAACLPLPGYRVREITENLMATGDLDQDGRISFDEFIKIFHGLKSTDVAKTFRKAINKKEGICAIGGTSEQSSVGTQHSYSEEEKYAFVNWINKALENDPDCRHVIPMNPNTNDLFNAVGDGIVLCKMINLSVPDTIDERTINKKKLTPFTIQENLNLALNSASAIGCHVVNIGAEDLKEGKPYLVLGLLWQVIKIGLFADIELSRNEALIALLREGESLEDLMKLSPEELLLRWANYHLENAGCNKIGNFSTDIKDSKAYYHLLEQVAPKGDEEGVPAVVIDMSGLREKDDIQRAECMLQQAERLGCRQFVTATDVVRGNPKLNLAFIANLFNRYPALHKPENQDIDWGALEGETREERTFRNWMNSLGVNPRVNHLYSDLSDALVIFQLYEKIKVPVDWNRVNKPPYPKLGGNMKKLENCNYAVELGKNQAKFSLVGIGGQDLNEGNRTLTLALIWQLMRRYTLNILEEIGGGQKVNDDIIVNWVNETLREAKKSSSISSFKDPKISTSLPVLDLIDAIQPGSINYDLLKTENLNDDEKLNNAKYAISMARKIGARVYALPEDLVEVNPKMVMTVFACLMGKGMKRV
UniProt Q8IVS2: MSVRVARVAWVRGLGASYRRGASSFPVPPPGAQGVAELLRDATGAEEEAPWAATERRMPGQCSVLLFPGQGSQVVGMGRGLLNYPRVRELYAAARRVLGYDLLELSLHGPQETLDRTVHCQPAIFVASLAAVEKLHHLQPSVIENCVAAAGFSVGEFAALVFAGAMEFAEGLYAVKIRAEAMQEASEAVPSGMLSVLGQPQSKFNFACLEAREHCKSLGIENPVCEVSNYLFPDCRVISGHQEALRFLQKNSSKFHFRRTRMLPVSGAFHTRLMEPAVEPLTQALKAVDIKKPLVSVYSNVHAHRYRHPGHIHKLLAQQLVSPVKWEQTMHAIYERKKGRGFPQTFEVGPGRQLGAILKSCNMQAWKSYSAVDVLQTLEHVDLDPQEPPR
UniProt P06213, whole entry: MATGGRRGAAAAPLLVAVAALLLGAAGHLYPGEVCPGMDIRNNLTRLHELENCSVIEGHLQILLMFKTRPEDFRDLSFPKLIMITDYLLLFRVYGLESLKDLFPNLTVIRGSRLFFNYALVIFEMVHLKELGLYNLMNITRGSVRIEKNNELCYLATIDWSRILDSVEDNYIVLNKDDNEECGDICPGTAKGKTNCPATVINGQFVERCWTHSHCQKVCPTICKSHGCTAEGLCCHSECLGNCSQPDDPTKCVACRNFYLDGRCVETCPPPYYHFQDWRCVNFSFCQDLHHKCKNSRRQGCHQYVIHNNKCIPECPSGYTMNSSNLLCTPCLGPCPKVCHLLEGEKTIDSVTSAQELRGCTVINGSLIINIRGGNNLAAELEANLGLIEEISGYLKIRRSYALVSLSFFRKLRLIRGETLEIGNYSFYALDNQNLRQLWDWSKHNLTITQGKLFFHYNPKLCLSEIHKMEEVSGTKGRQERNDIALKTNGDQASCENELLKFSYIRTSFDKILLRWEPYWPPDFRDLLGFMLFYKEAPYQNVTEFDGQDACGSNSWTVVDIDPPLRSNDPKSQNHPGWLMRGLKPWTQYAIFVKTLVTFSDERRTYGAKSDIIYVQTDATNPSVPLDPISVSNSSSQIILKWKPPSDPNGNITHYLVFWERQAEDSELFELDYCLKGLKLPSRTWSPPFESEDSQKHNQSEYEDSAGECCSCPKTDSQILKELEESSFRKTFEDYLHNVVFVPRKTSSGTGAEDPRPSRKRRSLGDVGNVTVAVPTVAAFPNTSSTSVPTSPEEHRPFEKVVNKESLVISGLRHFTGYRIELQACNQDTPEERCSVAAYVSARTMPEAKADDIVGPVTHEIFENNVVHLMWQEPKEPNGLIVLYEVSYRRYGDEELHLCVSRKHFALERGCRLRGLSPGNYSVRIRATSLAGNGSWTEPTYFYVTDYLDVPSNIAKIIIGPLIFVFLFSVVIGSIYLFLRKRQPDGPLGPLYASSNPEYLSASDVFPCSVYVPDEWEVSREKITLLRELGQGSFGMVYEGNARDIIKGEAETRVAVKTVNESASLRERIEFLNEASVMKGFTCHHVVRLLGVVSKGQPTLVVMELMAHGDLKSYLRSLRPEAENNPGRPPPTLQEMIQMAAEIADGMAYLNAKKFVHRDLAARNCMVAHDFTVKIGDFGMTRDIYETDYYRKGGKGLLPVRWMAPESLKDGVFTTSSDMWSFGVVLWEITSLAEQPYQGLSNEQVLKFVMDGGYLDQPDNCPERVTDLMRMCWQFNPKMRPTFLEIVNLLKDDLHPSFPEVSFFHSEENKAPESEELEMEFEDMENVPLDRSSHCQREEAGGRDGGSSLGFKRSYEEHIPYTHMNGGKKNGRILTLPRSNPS
UniProt P09417: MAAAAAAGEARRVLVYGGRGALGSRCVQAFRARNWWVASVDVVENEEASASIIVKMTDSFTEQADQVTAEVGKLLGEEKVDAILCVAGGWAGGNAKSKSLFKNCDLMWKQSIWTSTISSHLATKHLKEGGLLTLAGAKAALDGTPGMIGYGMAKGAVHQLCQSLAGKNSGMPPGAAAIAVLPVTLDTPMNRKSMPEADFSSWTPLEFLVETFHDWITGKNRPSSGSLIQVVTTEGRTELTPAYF
UniProt P10636, whole entry: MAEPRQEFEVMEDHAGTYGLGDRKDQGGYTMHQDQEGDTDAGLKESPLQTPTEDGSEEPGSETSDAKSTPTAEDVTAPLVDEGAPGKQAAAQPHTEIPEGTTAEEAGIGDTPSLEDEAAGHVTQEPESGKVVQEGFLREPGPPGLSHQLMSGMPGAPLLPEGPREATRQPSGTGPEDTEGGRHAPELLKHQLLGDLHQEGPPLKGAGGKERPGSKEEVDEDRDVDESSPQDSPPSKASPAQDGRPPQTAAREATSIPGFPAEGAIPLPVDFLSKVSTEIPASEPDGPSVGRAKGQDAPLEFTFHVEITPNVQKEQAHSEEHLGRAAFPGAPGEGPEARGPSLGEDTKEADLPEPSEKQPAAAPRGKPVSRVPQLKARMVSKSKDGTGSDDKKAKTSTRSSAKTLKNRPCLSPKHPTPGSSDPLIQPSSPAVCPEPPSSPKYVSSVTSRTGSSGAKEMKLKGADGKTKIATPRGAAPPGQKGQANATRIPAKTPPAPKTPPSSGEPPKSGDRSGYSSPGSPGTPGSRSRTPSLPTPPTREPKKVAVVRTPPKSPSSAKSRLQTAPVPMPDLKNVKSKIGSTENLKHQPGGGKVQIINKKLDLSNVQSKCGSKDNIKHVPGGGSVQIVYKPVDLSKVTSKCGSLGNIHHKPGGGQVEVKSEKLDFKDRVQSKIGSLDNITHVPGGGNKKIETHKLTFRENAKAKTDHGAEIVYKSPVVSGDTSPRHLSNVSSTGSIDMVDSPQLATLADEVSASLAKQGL
UniProt P00167, whole entry: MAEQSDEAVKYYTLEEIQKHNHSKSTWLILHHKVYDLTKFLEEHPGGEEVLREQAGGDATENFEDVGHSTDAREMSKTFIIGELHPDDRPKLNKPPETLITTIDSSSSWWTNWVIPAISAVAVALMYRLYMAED
UniProt P12235: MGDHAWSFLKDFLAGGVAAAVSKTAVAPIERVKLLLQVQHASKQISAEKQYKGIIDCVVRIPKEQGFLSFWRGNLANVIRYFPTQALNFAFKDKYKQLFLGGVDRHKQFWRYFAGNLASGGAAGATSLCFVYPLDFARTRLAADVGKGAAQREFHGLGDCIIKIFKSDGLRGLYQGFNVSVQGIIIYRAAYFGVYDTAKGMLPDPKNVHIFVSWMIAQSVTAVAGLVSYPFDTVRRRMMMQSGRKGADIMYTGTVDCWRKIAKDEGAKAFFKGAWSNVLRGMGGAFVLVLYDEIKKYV
UniProt P05141: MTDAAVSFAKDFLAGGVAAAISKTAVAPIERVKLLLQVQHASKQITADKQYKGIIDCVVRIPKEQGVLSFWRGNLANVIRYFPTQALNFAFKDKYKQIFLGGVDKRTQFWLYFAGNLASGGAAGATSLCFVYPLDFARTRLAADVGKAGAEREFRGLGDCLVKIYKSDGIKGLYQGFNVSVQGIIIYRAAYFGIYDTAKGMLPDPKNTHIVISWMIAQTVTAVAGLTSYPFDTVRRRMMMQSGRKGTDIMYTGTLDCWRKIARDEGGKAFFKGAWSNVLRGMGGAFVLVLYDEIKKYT
UniProt O95865: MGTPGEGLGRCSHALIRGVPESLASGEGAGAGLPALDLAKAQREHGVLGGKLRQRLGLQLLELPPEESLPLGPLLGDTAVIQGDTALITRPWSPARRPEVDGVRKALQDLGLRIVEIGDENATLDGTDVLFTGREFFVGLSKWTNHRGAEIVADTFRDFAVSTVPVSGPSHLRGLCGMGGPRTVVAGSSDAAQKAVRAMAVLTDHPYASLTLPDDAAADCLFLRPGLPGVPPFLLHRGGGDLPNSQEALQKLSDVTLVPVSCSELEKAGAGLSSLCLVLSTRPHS
UniProt P15813: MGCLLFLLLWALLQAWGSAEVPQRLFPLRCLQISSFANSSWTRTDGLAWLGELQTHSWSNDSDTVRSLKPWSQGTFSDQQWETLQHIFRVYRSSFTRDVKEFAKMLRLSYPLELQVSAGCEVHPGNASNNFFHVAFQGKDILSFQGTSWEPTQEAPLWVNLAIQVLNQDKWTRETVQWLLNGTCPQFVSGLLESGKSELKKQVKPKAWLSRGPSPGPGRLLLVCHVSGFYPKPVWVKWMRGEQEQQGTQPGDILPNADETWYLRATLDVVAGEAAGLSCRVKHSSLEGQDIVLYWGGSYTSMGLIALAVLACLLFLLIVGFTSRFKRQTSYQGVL
UniProt P06733, whole entry: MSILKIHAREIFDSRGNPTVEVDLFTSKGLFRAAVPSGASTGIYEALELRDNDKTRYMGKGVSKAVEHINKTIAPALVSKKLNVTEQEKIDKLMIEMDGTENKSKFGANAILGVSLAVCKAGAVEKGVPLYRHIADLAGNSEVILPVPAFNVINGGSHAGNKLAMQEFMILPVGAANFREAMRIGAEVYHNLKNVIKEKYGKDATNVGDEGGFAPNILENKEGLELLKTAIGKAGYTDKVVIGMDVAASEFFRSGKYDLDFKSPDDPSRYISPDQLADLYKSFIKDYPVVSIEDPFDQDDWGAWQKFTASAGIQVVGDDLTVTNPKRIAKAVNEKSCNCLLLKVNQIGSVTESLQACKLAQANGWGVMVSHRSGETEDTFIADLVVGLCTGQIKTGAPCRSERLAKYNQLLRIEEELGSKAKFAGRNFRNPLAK

± gives the standard deviation of the averaged measurements. Only a part is listed here, and it is no random draw. Most entries show no effect beyond the scatter of the controls.

Compound in one test: Nc1ncnc2c1ncn2[C@@H]1O[C@H](COP(=O)(O)OP(=O)(O)OP(=O)(O)O)[C@@H](O)[C@H]1O [adenosine triphosphate]
Put plainly: NP40-soluble protein abundance relative to vehicle (solubility fold change) (ratio); higher = more soluble protein in presence of ATP. The conditions noted are these: concentration: 0.1mM. In a few lines:
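Crude Jurkat lysate, prepared by Dounce homogenisation, was exposed to eight concentrations from 0.1 to 10 mM for 10 min at room temperature and then 3 min at 37 °C. Solubilisation used 0.8% NP40 with benzonase for 60 min at 4 °C, followed by ultracentrifugation and TMT labelling of the supernatant for LC-MS/MS. After vsn normalisation of intensities, each value is the fold change against the detergent-processed vehicle within each replicate, across three independent experiments.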
DHFR (UniProt P00374): the NP40-soluble protein abundance is 1.04 ± 0.089.

As to UniProt P10398 and related entries, the NP40-soluble protein abundance is 1.1 ± 0.1.

In the case of FBXO45 (UniProt P0C2W1), the NP40-soluble protein abundance came out at 0.972 ± 0.11.

As to UniProt O95980, the NP40-soluble protein abundance is 1.03 ± 0.11.

In the case of UBL4A (UniProt P11441), the NP40-soluble protein abundance was determined as 0.924 ± 0.1.

With CYC1 (UniProt P08574), the NP40-soluble protein abundance is 1.01 ± 0.031.

As for DARS (UniProt P14868), the NP40-soluble protein abundance was 1.04 ± 0.033.

For the target LCP1 (UniProt P13796), the NP40-soluble protein abundance is 1.05 ± 0.084.

With UniProt O96017 and related entries, the NP40-soluble protein abundance was determined as 1.05 ± 0.099.

On to RPS2 (UniProt P15880), for which the NP40-soluble protein abundance was determined as 0.913 ± 0.073.

In the case of “P00395 and related entries (UniProt Q8IVS2)”, the NP40-soluble protein abundance worked out at 1.04 ± 0.096.

With UniProt P06213 and related entries, the NP40-soluble protein abundance came to 0.973 ± 0.02.

Regarding QDPR (UniProt P09417), the NP40-soluble protein abundance turned out to be 1.03 ± 0.046.

As for SNRPB2 (UniProt P08579), the NP40-soluble protein abundance was determined as 0.971 ± 0.014.

As for UniProt P04053 and related entries, the NP40-soluble protein abundance worked out at 1.05 ± 0.031.

UniProt P10636-6|P10636-7: the NP40-soluble protein abundance is 0.907 ± 0.06.

Consider EEF2 (UniProt P13639), for which the NP40-soluble protein abundance amounted to 0.995 ± 0.087.

With EPRS (UniProt P07814), the NP40-soluble protein abundance was 1.02 ± 0.056.

On to BAG2 (UniProt O95816), for which the NP40-soluble protein abundance is 1 ± 0.11.

P4HB (UniProt P07237): the NP40-soluble protein abundance was found to be 0.968 ± 0.049.

CYB5A (UniProt P00167): the NP40-soluble protein abundance was 0.932 ± 0.026.

With SLC25A4 (UniProt P12235), the NP40-soluble protein abundance is 0.955 ± 0.059.

Turning to TOMM40 (UniProt O96008), the NP40-soluble protein abundance was 1.03 ± 0.074.

With HSP90B1 (UniProt P14625), the NP40-soluble protein abundance was 0.984 ± 0.057.

Turning to NRAS (UniProt P01111), the NP40-soluble protein abundance was found to be 1.07 ± 0.031.

Take UCHL3 (UniProt P15374): the NP40-soluble protein abundance came out at 1.04 ± 0.06.

With RPA2 (UniProt P15927), the NP40-soluble protein abundance is 0.987 ± 0.023.

Turning to SLC25A5 (UniProt P05141), the NP40-soluble protein abundance turned out to be 0.947 ± 0.021.

On to DDAH2 (UniProt O95865), for which the NP40-soluble protein abundance came out at 0.996 ± 0.026.

Take UniProt P15813: the NP40-soluble protein abundance is 0.86 ± 0.11.

Regarding ENO1 (UniProt P06733), the NP40-soluble protein abundance amounted to 0.94 ± 0.04.

With AKR1B1 (UniProt P15121), the NP40-soluble protein abundance amounted to 1.04 ± 0.12.

Regarding ACADS (UniProt P16219), the NP40-soluble protein abundance was found to be 1.06 ± 0.098.

Take ALAS1 (UniProt P13196): the NP40-soluble protein abundance was found to be 1.04 ± 0.044.

As to HMBS (UniProt P08397), the NP40-soluble protein abundance is 1.01 ± 0.051.

Turning to SNRPA1 (UniProt P09661), the NP40-soluble protein abundance was found to be 0.92 ± 0.071.

Take UniProt P14735 and related entries: the NP40-soluble protein abundance worked out at 1.06 ± 0.088.

Still in this test, the particulars now being: concentration: 0.5mM.
For DHFR (UniProt P00374), the NP40-soluble protein abundance turned out to be 1.07 ± 0.067.

In the case of UniProt P10398 and related entries, the NP40-soluble protein abundance stood at 1.34 ± 0.13.

Take FBXO45 (UniProt P0C2W1): the NP40-soluble protein abundance worked out at 0.967 ± 0.066.

Regarding UniProt O95980, the NP40-soluble protein abundance came to 0.97 ± 0.12.

Regarding UBL4A (UniProt P11441), the NP40-soluble protein abundance is 0.851 ± 0.083.

In the case of CYC1 (UniProt P08574), the NP40-soluble protein abundance is 1 ± 0.018.

Take DARS (UniProt P14868): the NP40-soluble protein abundance was 1.02 ± 0.033.

Consider LCP1 (UniProt P13796), for which the NP40-soluble protein abundance came out at 0.851 ± 0.1.

Take UniProt O96017 and related entries: the NP40-soluble protein abundance was determined as 1.07 ± 0.088.

For the target RPS2 (UniProt P15880), the NP40-soluble protein abundance worked out at 0.911 ± 0.099.

For “P00395 and related entries (UniProt Q8IVS2)”, the NP40-soluble protein abundance is 1.01 ± 0.05.

With UniProt P06213 and related entries, the NP40-soluble protein abundance came out at 0.971 ± 0.025.

Regarding QDPR (UniProt P09417), the NP40-soluble protein abundance came to 1 ± 0.033.

For SNRPB2 (UniProt P08579), the NP40-soluble protein abundance was 0.984 ± 0.011.

With UniProt P04053 and related entries, the NP40-soluble protein abundance was 1.049 ± 0.0091.

On to UniProt P10636-6|P10636-7, for which the NP40-soluble protein abundance was 0.893 ± 0.073.

In the case of EEF2 (UniProt P13639), the NP40-soluble protein abundance is 0.999 ± 0.06.

As to EPRS (UniProt P07814), the NP40-soluble protein abundance stood at 1.03 ± 0.056.

In the case of BAG2 (UniProt O95816), the NP40-soluble protein abundance was found to be 0.939 ± 0.1.

P4HB (UniProt P07237): the NP40-soluble protein abundance is 0.971 ± 0.054.

In the case of CYB5A (UniProt P00167), the NP40-soluble protein abundance stood at 0.868 ± 0.085.

On to SLC25A4 (UniProt P12235), for which the NP40-soluble protein abundance worked out at 0.9532 ± 0.0058.

As for TOMM40 (UniProt O96008), the NP40-soluble protein abundance turned out to be 1.02 ± 0.031.

As to HSP90B1 (UniProt P14625), the NP40-soluble protein abundance was found to be 1.03 ± 0.051.

Consider NRAS (UniProt P01111), for which the NP40-soluble protein abundance stood at 1.02 ± 0.05.

Regarding UCHL3 (UniProt P15374), the NP40-soluble protein abundance was found to be 1.03 ± 0.09.

For the target RPA2 (UniProt P15927), the NP40-soluble protein abundance amounted to 0.983 ± 0.019.

As to SLC25A5 (UniProt P05141), the NP40-soluble protein abundance worked out at 0.97 ± 0.025.

As to DDAH2 (UniProt O95865), the NP40-soluble protein abundance is 0.982 ± 0.034.

Take UniProt P15813: the NP40-soluble protein abundance was 0.859 ± 0.12.

Regarding ENO1 (UniProt P06733), the NP40-soluble protein abundance stood at 1.1 ± 0.17.

As for AKR1B1 (UniProt P15121), the NP40-soluble protein abundance was found to be 1.04 ± 0.11.

As for ACADS (UniProt P16219), the NP40-soluble protein abundance was determined as 1.06 ± 0.071.

As for ALAS1 (UniProt P13196), the NP40-soluble protein abundance came to 1.01 ± 0.035.

Consider HMBS (UniProt P08397), for which the NP40-soluble protein abundance amounted to 1.03 ± 0.065.

Consider SNRPA1 (UniProt P09661), for which the NP40-soluble protein abundance was determined as 0.899 ± 0.063.

For the target UniProt P14735 and related entries, the NP40-soluble protein abundance is 1.04 ± 0.081.
